Measured values: PubChem BioAssay (NCATS)
The inconclusive results got no clear call from the source; some entries with a clear call stand among them for comparison. Where the call is inconclusive, the potency comes from a doubtful curve fit. Calls of active or inactive are those of the source. The call rests on the fitted dose curve; in most records, active means well fitted cell-killing curve with a large enough effect; inconclusive means small, poorly fitted or top-dose-only effect, or effect the other way; inactive means no such curve, though single readings can be large or run the other way.

Assay: Quantitative High-Throughput drug screen in 47 multiple myeloma cell lines against the NCATS MIPE library collection: KMM1_JCRB cell viability assay (AID 1918960); further: nearly all actives have a fitted effect of over 30% in size
Conditions: KMM1 myeloma viability, CellTiter-Glo ATP luminescence, 48 h; series mostly up to 45.8 µM
Outline: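 Each line was plated at 500 cells/well and treated 48 h with library drugs. Viability came from CellTiter-Glo luminescence relative to DMSO and cell-free medium controls.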
Potency means the concentration at half of the fitted maximal effect.

Row | SMILES | Potency
1 | COC(=O)[C@H](CCCN=C(N)N)NS(=O)(=O)c1ccc(C)cc1 | inactive
2 | O=C(O)c1ccc(O)c2ncc(N3CCOCC3)cc12 | inconclusive: 29.6 µM [cytotoxic, single point]
3 | CC[C@H](CC#N)OC(=O)N[C@@H](C)c1cccc(NC(=O)Nc2ccc(-c3cnco3)c(OC)c2)c1 | active: 0.418 µM
4 | CCOc1cc2ncc(C#N)c(Nc3ccc(F)c(Cl)c3)c2cc1NC(=O)C=CCN(C)C | inconclusive: 0.418 µM [cytotoxic, full curve, poor fit]
5 | CN(C)c1ccccc1CN1CCCN(Cc2ccccc2N(C)C)C1c1ccncc1 | inconclusive: 13.2 µM [cytotoxic, partial curve]
6 | C[C@@H](NC(=O)c1ncnc(N)c1Cl)c1ncc(C(=O)Nc2cc(C(F)(F)F)c(Cl)cn2)s1 | inconclusive: 33.2 µM [cytotoxic, single point]
7 | COc1ccc(CCN2CCN(CCCc3ccccc3)CC2)cc1OC | inconclusive: 37.2 µM [cytotoxic, single point]
8 | NC(=NCc1ccccc1)NC(=O)c1nc(Cl)c(N)nc1N | inconclusive: 29.6 µM [cytotoxic, single point]
9 | Fc1ccc(C(c2ccc(F)cc2)N2CCN(CC=Cc3ccccc3)CC2)cc1 | inactive
